Tested on: test panelists
Experiment: Round table qualitative assessment of quality of sweetness and undesirable attributes, scale of 1-10
Assay type: in vivo
Protocol: Round table evaluations were performed with 7 test panelists. Equal sweet 5 SEV concentrations in neutral pH water were made for Thaumatin II (purity greater than 90%), Rebaudioside A, and Rebaudioside M. These equal sweet solutions were also mixed at 50% of Thaumatin II and 50% Reb M or RebA and compared to the individual components. All solutions were coded and blinded from panelists. Panelists were asked to provide a qualitative assessment on a scale of 1-10 of the quality of sweetness (10 being the highest quality of sweetness) and undesirable attributes (10 being most undesirable) of each solution using a 5% sucrose and 500 ppm RebA solutions as controls. For the quality of sweetness, the score 10 was assigned to 5% sucrose. Vice versa, the score 1 was assigned to and 500 ppm RebA. For undesirable attributes, the scores 10 and 1 were assigned to 500 ppm RebA and 5% sucrose, respectively.

| Structure (SMILES) | Taste of control solution (5% solution) | Taste of control solution (500 ppm solution) |
| --- | --- | --- |
| OC[C@H]1O[C@@](CO)(O[C@H]2O[C@H](CO)[C@@H](O)[C@H](O)[C@H]2O)[C@@H](O)[C@@H]1O [sucrose] | sweet taste without any off notes |  |
| C=C1C[C@@]23CC[C@H]4[C@@](C)(CCC[C@@]4(C)C(=O)O[C@@H]4O[C@H](CO)[C@@H](O)[C@H](O)[C@H]4O)[C@@H]2CC[C@]1(O[C@@H]1O[C@H](CO)[C@@H](O)[C@H](O[C@@H]2O[C@H](CO)[C@@H](O)[C@H](O)[C@H]2O)[C@H]1O[C@@H]1O[C@H](CO)[C@@H](O)[C@H](O)[C@H]1O)C3 [Rebaudioside A] |  | very strong artificial off taste |
